## Library screening results

The values are deposited in ChEMBL (CHEMBL3988442, “University of Dundee, Small-Polar-MMV Screening Library” (2021)).

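Viability assay of Plasmodium falciparum sporozoites; the read-out is not stated. The concentration is filed as 10 mM, unlikely as a test dose, so the dose is not known. Direction is inferred from retests: higher values go with lower viability. Strong results were mostly tested again. Size under these conditions: about 34,000 compounds, about 280 of them at 50% or above in at least one test.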

The filed quantity is “Percent Effect” (%). The controls that fix the scale are not given in the record; negative values are as filed. This is an unselected part of the compounds tested. Two or more numbers in one place are separate tests of the same structure; such repeats can differ widely.

structure: COc1ccc(CN2CCCn3cncc3C2)cc1Cn1cncn1
effect: 5.325

structure: CNC(=O)CN1CCN(C(=O)c2ccn(C)c(=O)c2)CC1
effect: -17.58 & -16 & 3.23

structure: CC(C)c1nc(C2CCCN2C(=O)c2ccc(C#N)cn2)no1 (stereo not given)
effect: 1.34

structure: O=C(O)C(F)(F)F.O=C(O)C(F)(F)F.O=C(O)C(F)(F)F.[H][C@]12C[C@@H](C(=O)NCC3CC3)N(C)[C@@]1([H])CN(Cc1cccnc1OC)C2
effect: 0

structure: c1ccc(-c2ccc(CN3CCOC(Cn4cncn4)C3)cc2)cc1 (stereo not given)
effect: -3.122

structure: Cc1noc(C(C)C)c1C(=O)NCc1ccc2c(c1)OCCO2
effect: 0.3904

structure: Cc1noc(C)c1-c1ccc(C2CCCN2C(=O)c2cccnc2)nc1 (stereo not given)
effect: 15.51

structure: CCN(CC)CCNC(=O)c1ccn(COc2cc(C)cc(C)c2)n1
effect: 5.263

structure: COc1ncccc1CNC(=O)c1c(C)oc(C)c1C
effect: 8.031

structure: NC(=O)C1CN(C(=O)Nc2ccccc2OCC(F)(F)F)CCO1 (stereo not given)
effect: 17.41

structure: O=S(=O)(CCC1CCCO1)NCc1ncc(-c2ccccc2)o1 (stereo not given)
effect: 1.446

structure: CS(=O)(=O)N[C@@H]1CCO[C@]2(CCN(C(=O)C3=CCCC3)C2)C1
effect: -2.971

structure: Cc1cnn(CC(=O)N2CCC(Nc3ccc(C)nn3)CC2)c1
effect: 7.705

structure: CCn1ccnc1CN1CCN(Cc2cccc(C#N)c2)CC1
effect: 5.794

structure: CCn1cnnc1CNC(=O)N1CCN(CCc2ccccc2)CC1
effect: 5.272

structure: Cc1n[nH]c(C)c1C1COCCN1C(=O)c1n[nH]c2ccccc12 (stereo not given)
effect: 11.69

structure: CCNC(=O)N(C)C(c1ccccc1)c1ccccn1 (stereo not given)
effect: 0.03409

structure: Cc1ccc(NC2CCN(C(=O)c3ccsc3)CC2)nn1
effect: -4.742

structure: O=C(O)c1csc(S(=O)(=O)N2CCCc3cccc(OC(F)F)c32)c1
effect: -11.53

structure: Cc1c(CN2CCc3nc4sccc4c(=O)n3CC2)cnn1C.Cl
effect: 4.819

structure: Cc1cnccc1-n1nc(C(C)C)nc1CS(C)(=O)=O
effect: 82.57 & 75

structure: COc1cccc(CN(C)Cc2cccc(C#N)c2)c1OC
effect: -11.72

structure: C[C@@H]1CN(C(=O)c2cccs2)C[C@]12CCN(CCN(C)C)C2=O.O=C(O)C(F)(F)F
effect: 7.262

structure: CNc1cccc(C2CCCN(C(=O)c3cncs3)C2)n1 (stereo not given)
effect: -1.865

structure: Cc1nc(CN2CCOC(Cn3cccn3)C2)nc2ccccc12 (stereo not given)
effect: 9.762

structure: COC(=O)c1cc(OCC2CCC2)cc(C(=O)N[C@@H]2CNCC[C@H]2O)c1
effect: 7.202

structure: c1cnc(N2CCC(c3n[nH]c4ncccc34)C2)nc1 (stereo not given)
effect: 11.05

structure: Cc1cc(-c2cc(C3CCOC3)c(C#N)c(N)n2)ccc1Cl (stereo not given)
effect: -37.12 & 2.315 & -36.95

structure: Cn1ccnc1CC1CCCN(C(=O)Cc2ccccc2)C1 (stereo not given)
effect: -2.008

structure: O=C(O)C(F)(F)F.[H][C@@]12COC[C@]1(C(=O)NCC1CC1)CN(Cc1scnc1C)C2
effect: -10.27

structure: CC(=O)N1CCCC(c2ccnc(Nc3cnccn3)n2)C1 (stereo not given)
effect: -3.198

structure: c1cnn(CCNCc2nnc(C3CC3)o2)c1
effect: 11.1

structure: O=C(O)C(F)(F)F.[H][C@@]12CN(C(=O)c3ccoc3)C[C@]1([H])OCCN2c1ncccn1
effect: 10.12

structure: Cc1nc(CN2CCC(c3ccnn3CCO)CC2)oc1C
effect: 6.581

structure: O=C(Cc1ccccc1)N1CCC2(CC1)COCCN2CC1CC1.O=C(O)C(F)(F)F
effect: -10.58

structure: Cc1nc(C)c(C(=O)NCCNC(=O)Cc2ccccc2)s1
effect: 3.091

structure: CCCc1n[nH]c(C2CN(C(=O)c3cccc4[nH]ncc34)CCO2)n1 (stereo not given)
effect: -8.805

structure: c1cc(C2CCN(C3CCCCC3)C2)n[nH]1 (stereo not given)
effect: 2.849

structure: O=C(c1ccccn1)N1CCC(Cc2cnc3[nH]ccc3c2)CC1
effect: 12.26

structure: COc1ccc(C)cc1CC(=O)NS(=O)(=O)c1ccc(C(N)=O)cc1
effect: 1.671

structure: COc1ccc(NC(=O)CCN2CC=C(c3cnn(C)c3)CC2)cc1Cl
effect: -1.99

structure: CCn1cnnc1CNC(=O)N(C)Cc1ccc2c(c1)OCO2
effect: 2.82

structure: CCc1cnc(CN(C)C2CCN(CCn3cc(C#N)cn3)C2)o1 (stereo not given)
effect: 11.64

structure: CC(=O)N1N=C(c2cccs2)OC1C(=O)Nc1ccc(C(C)C)cc1 (stereo not given)
effect: -7.53

structure: Clc1ccc2nc(N3CCC(NCCCC4CCOC4)CC3)sc2c1 (stereo not given)
effect: 74.93 & 78.72

structure: Cc1occc(=O)c1OCC(=O)N1CCN(c2ccccc2)CC1
effect: -2.089

structure: CCN1CCN(C(=O)c2ccn(C)c(=O)c2)CC1
effect: -22.58 & 18.85 & -22.68

structure: Cn1ccnc1CN1CCC2(CC(=O)N(c3cccc(F)c3)C2)C1.O=C(O)C(F)(F)F (stereo not given)
effect: -10.39

structure: O=C(CCNc1ncccn1)NCCc1ccn(-c2ccccc2)n1
effect: 2.864

4 of the entries, repeated:

| structure | effect |
|---|---|
| `COc1ccc(CN2CCCn3cncc3C2)cc1Cn1cncn1` | 5.325 |
| `Cc1c(CN2CCc3nc4sccc4c(=O)n3CC2)cnn1C.Cl` | 4.819 |
| `c1cnc(N2CCC(c3n[nH]c4ncccc34)C2)nc1` (stereo not given) | 11.05 |
| `c1cc(C2CCN(C3CCCCC3)C2)n[nH]1` (stereo not given) | 2.849 |